Test results taken from article PMC10186271, “The ABA-induced NAC transcription factor MdNAC1 interacts with a bZIP-type transcription factor to promote anthocyanin synthesis in red-fleshed apples”.

Tested on: MdNAC1 + MdbZIP23
Assay: EMSA
Details: increasing MdbZIP23-His enhances MdNAC1 binding, His tag added as control; Thermo Scientific Pierce EMSA kit protocol; pH and temperature not stated; cold probe 100x; recombinant protein; protein details: His (pET32a),His; label: 3' biotin

Sequence	binding result
GTGATTGGCTTCTGATGTTGACACGTGTCGCGCTGTGGTTGGCTTC (double strand) [UFGT hot probe (box 1)]	binds
TTTAATAAAAAGGACCCTGAACACGTGGGAACCGGCCCGTTTGTAA (double strand) [MYB10 hot probe]	binds

The exact form of at least one protein or probe is not confirmed. At least one verdict was read from the data and is not stated in words by the source.
